Biological target: CYP3A4 (Homo sapiens, UniProt P08684)
Conditions: in vivo

Chains of the proteins cited; added tags and fusions are not shown.
UniProt P08684, whole entry: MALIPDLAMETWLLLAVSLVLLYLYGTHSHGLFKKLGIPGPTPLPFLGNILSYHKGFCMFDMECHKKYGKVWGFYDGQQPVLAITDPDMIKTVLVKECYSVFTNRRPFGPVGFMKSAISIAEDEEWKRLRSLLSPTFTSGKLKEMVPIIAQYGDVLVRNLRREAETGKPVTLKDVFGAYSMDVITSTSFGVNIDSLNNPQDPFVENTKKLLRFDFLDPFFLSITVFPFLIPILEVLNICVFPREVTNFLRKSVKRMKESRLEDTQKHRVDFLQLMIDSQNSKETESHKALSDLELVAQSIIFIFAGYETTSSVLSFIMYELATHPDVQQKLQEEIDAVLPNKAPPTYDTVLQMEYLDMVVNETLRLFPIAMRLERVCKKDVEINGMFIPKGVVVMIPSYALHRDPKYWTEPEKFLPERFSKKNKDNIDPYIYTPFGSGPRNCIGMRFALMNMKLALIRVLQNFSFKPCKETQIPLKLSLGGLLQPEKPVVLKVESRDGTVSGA

- Dose ratio (T carrier/non-Tcarrier): 0.22
Compound: CC(C)c1c(C(=O)Nc2ccccc2)c(-c2ccccc2)c(-c2ccc(F)cc2)n1CC[C@@H](O)C[C@@H](O)CC(=O)O [Atorvastatin, atorvastatin]
